Results from the supplement of paper PMC12067093, “Discovery and optimisation of a covalent ligand for TRIM25 and its application to targeted protein ubiquitination” (Chemical Science, 2025).
This is one part of the list.

Protein sequences, listed by entry. Tags and fused reporters are not part of them. Lines headed by an entry give the natural chain unless they say otherwise; changes in a name come on top.
UniProt Q99996, whole entry, looked up: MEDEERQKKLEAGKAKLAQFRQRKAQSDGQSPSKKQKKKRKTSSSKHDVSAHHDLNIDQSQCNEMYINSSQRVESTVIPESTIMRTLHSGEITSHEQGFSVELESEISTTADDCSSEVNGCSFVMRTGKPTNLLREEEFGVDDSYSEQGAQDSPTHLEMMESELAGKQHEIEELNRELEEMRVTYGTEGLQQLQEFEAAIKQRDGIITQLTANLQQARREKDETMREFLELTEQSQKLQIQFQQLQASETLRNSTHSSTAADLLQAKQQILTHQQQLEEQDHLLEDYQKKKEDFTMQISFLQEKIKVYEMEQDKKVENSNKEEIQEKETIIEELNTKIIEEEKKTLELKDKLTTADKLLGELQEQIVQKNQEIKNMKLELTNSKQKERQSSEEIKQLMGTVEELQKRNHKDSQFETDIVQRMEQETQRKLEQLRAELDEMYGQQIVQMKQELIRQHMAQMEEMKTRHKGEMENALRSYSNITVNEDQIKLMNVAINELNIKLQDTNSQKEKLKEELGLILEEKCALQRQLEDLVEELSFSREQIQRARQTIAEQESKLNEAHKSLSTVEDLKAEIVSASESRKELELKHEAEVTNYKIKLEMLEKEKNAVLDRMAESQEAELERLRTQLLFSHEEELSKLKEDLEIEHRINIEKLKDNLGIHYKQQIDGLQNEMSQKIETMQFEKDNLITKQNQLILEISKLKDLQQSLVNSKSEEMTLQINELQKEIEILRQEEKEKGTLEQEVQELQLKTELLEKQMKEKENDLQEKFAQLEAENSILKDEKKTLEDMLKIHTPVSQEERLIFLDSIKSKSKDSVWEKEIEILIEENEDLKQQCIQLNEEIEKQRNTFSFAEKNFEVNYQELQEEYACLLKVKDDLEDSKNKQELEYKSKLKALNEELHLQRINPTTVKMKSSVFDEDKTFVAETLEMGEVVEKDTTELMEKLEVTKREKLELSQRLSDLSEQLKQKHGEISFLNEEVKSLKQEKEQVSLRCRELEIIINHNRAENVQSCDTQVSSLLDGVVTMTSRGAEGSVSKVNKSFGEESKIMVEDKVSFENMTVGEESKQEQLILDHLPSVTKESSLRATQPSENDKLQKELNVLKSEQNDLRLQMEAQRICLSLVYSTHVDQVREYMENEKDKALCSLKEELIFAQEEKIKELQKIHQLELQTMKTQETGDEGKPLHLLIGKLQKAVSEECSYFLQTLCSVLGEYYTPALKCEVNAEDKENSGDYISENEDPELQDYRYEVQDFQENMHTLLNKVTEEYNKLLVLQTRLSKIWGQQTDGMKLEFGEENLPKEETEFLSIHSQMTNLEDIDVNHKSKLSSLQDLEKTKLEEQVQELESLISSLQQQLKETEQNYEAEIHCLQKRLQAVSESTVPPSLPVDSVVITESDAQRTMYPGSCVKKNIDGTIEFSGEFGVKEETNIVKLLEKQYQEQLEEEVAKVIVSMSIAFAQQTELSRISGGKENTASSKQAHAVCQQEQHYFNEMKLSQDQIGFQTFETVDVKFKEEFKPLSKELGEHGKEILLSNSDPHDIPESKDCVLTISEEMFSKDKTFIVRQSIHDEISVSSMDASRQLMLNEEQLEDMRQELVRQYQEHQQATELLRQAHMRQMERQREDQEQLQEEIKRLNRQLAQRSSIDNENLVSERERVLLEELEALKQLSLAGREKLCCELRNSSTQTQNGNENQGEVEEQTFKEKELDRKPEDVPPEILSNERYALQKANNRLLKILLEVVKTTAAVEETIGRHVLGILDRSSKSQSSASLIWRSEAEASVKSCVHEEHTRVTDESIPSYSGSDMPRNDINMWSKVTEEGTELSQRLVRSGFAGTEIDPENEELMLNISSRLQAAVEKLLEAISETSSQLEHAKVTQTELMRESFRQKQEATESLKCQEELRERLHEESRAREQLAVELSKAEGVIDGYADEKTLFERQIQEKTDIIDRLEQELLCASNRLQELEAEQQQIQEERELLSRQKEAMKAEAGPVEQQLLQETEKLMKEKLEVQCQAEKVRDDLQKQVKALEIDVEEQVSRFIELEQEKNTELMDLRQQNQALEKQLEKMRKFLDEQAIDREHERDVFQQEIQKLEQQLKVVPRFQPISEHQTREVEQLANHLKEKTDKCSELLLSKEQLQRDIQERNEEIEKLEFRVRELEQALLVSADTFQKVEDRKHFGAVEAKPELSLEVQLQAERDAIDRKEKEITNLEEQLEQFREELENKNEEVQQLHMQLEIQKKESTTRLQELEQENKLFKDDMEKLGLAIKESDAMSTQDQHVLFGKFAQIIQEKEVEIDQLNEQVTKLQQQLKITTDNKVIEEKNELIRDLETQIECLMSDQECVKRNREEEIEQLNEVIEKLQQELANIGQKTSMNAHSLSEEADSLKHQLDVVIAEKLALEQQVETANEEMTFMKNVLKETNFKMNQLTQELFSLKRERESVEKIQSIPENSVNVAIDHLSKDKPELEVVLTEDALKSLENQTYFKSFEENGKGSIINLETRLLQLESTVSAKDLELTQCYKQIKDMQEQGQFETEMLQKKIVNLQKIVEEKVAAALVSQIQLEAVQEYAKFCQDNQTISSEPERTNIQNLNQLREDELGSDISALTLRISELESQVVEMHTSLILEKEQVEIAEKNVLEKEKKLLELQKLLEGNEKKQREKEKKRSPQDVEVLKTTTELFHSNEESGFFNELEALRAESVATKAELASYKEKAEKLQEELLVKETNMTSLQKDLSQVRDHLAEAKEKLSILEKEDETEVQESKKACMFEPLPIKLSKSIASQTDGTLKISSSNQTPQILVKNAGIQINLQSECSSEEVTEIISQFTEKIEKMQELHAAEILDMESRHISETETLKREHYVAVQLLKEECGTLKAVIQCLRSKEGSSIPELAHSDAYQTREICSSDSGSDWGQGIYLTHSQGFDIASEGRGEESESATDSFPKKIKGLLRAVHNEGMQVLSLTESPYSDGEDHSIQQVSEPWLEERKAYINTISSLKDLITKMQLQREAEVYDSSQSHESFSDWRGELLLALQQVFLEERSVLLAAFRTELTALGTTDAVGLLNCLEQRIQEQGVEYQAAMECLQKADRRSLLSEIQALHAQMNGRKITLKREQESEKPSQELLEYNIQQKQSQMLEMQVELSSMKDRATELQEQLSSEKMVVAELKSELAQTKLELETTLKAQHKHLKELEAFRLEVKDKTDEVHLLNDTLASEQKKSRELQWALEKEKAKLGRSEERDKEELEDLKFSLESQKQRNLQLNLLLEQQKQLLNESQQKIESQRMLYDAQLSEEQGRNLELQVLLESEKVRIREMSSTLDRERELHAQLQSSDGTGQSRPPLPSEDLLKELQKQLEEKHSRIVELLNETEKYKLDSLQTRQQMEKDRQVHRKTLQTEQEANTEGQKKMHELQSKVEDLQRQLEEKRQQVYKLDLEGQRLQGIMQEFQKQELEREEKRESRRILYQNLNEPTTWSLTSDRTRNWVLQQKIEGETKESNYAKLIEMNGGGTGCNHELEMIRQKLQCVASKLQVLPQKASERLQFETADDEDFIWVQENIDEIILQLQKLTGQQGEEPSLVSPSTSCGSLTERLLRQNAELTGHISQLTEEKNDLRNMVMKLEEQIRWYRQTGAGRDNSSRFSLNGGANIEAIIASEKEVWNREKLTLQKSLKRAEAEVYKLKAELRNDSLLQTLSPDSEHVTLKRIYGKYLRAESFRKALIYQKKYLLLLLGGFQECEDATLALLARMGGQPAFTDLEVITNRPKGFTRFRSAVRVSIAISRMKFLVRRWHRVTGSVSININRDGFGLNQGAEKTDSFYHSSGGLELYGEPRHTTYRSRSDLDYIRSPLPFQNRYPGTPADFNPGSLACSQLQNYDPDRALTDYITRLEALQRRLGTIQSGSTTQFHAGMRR
UniProt Q9H553: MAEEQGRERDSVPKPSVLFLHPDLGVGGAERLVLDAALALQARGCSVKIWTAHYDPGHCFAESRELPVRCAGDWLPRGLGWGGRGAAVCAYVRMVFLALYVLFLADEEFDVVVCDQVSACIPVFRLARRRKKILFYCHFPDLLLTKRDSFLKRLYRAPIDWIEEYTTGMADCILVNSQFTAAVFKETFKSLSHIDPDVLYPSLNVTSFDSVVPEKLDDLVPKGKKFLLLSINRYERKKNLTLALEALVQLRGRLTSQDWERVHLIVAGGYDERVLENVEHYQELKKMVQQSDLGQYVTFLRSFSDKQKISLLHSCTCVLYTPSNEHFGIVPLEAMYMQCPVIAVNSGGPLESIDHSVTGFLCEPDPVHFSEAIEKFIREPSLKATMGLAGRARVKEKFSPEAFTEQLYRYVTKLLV
UniProt P49419: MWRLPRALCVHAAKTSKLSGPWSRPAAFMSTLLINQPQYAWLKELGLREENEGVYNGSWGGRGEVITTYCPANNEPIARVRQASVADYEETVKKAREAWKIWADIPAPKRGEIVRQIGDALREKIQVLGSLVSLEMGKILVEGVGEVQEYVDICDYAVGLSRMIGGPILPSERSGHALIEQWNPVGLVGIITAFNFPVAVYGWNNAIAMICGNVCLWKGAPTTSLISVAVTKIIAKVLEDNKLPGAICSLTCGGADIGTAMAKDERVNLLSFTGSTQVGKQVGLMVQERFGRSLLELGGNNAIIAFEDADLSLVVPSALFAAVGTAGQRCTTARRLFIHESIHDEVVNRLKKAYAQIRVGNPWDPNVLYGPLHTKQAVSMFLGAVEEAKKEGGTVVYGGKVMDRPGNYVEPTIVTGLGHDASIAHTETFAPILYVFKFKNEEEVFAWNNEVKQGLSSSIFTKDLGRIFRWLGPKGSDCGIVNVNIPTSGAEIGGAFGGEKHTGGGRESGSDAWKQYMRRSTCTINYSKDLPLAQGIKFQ
UniProt P04075: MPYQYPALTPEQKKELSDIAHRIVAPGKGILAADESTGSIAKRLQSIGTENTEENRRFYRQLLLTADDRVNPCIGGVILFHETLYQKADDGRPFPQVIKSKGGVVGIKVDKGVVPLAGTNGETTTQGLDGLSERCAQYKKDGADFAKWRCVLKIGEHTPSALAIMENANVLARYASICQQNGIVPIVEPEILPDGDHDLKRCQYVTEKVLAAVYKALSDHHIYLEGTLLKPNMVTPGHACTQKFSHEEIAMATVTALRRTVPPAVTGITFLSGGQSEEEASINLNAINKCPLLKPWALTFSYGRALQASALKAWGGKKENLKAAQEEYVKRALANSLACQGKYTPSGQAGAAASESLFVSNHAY
UniProt O43865, whole entry, looked up: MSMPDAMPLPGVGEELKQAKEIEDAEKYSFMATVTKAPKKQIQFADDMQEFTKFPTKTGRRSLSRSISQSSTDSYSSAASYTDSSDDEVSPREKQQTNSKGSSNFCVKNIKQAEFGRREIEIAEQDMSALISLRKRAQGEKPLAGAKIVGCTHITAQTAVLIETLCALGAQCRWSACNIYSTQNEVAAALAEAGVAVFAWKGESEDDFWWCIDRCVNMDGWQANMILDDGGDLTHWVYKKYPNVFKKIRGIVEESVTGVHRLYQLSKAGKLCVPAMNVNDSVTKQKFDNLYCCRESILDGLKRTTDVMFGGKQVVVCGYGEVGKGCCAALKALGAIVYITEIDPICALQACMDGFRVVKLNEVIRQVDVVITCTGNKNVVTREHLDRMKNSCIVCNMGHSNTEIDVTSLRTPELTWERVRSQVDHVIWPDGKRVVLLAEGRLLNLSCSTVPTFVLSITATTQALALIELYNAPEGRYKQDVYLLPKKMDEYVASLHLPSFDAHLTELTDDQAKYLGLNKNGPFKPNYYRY
UniProt Q8IZ83: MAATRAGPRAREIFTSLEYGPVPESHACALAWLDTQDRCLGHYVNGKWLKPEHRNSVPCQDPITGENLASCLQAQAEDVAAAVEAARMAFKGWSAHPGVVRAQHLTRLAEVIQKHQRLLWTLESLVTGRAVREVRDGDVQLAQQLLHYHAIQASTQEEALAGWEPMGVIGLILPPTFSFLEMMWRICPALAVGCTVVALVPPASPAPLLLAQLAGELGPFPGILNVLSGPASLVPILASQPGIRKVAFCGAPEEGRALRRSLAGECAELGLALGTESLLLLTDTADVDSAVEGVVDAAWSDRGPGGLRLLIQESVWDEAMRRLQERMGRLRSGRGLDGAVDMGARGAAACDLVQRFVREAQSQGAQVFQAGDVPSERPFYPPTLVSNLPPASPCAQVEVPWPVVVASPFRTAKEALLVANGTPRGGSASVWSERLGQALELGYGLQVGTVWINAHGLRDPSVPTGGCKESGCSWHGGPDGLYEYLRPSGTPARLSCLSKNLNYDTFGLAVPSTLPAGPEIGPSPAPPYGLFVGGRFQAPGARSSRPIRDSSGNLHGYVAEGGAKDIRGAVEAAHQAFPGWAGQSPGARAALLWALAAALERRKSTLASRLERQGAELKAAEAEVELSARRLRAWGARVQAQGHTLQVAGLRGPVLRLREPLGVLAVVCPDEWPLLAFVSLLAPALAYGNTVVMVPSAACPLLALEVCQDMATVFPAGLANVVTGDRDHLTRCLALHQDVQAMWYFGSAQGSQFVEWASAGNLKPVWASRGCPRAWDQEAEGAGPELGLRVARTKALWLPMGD

Compound: Cc1cc(ccc1-c1ccccc1)C(=O)N1CCCN(CC1)C(=O)CCl [compound 10]
Assay: probe-labelled cysteine peptide fold change vs DMSO (competition) (log2 fold change); higher = less target engagement (more negative = stronger competition)
Settings: THP-1, incubation time: 4 h
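Note: competitive profiling in live THP-1 cells: cysteine peptides tagged with an iodoacetamide desthiobiotin (IA-DTB) probe, intensity after compound treatment relative to DMSO-treated cells.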

| Target | probe-labelled cysteine peptide fold change (10 µM) | probe-labelled cysteine peptide fold change (50 µM) |
| --- | --- | --- |
| AKAP9_Q99996_1367_ETEQNYEAEIHCLQK (UniProt Q99996) | -0.169 | -0.14 |
| ALG2_Q9H553_59_IWTAHYDPGHCFAESR (UniProt Q9H553) | -0.0245 | -0.205 |
| ALDH7A1_P49419_522_STCTINYSK (UniProt P49419) | 0.00826 | -0.164 |
| AKAP17A_Q02040_522_SVNGSVAEEAPCK (UniProt Q02040) | -0.354 | -0.247 |
| ANKFY1_Q9P2R3_34_RCALLAAQANK (UniProt Q9P2R3) | 0.0962 | 0.224 |
| AGPS_O00116_404_YGSVAFPNFEQGVACLR (UniProt O00116) | -0.0669 | 0.176 |
| ALDOA_P04075_178_YASICQQNGIVPIVEPEILPDGDHDLKR (UniProt P04075) | 0.281 | -0.12 |
| AHCYL1_O43865_395_NSCIVCNMGHSNTEIDVTSLR (UniProt O43865) | 0.199 | -0.158 |
| ALG11_Q2TAA5_345_LVLIGGCR (UniProt Q2TAA5) | 0.00163 | 0.0992 |
| ALDH6A1_Q02252_249_LLQDSGAPDGTLNIIHGQHEAVNFICDHPDIK (UniProt Q02252) | 0.0524 | -0.0688 |
| AK2_P54819_40+42_LAENFCVCHLATGDMLR (UniProt P54819) | 0.0321 | -0.437 |
| ALDH16A1_Q8IZ83_350_GAAACDLVQR (UniProt Q8IZ83) | 0.0125 | -0.0468 |
| ALDH6A1_Q02252_86_AEMDAAIASCK (UniProt Q02252) | -0.0464 | -0.0142 |
| ALDOA_P04075_290_CPLLKPWALTFSYGR (UniProt P04075) | -0.405 | -0.644 |
| ANKHD1_Q8IWZ3-6_2579_VPAGVQELTHCPDTPLLPPSDSR (UniProt Q8IWZ3) | -0.109 | 0.0474 |
| AKAP9_Q99996_2333+2340_DLETQIECLMSDQECVK (UniProt Q99996) | -0.0118 | 0.338 |
| AMFR_Q9UKV5_356+364_KLPCGHLFHNSCLR (UniProt Q9UKV5) | 0.0916 | -0.0158 |
| AKAP2_Q9Y2D5_296_RAQQEQLLLQKQLQQQQQQPPSQLCTAPASSHER (UniProt Q9Y2D5) | -0.361 | -0.44 |
| AHCYL1_O43865_292+293_QKFDNLYCCR (UniProt O43865) | -0.0671 | -0.96 |
